The values that follow come from patent US20170165365A1 (SYMPHOGEN A S, published 2017).

Amino acid sequences for entries named in this document (tags omitted). A change or cut given only in a name is not applied to a line headed by its entry. Chains listed by the source or under a name are the forms on record and can include a tag or linker. Residues count along the entry.
cynomolgus HER3 antigen (G7PIG5, form named): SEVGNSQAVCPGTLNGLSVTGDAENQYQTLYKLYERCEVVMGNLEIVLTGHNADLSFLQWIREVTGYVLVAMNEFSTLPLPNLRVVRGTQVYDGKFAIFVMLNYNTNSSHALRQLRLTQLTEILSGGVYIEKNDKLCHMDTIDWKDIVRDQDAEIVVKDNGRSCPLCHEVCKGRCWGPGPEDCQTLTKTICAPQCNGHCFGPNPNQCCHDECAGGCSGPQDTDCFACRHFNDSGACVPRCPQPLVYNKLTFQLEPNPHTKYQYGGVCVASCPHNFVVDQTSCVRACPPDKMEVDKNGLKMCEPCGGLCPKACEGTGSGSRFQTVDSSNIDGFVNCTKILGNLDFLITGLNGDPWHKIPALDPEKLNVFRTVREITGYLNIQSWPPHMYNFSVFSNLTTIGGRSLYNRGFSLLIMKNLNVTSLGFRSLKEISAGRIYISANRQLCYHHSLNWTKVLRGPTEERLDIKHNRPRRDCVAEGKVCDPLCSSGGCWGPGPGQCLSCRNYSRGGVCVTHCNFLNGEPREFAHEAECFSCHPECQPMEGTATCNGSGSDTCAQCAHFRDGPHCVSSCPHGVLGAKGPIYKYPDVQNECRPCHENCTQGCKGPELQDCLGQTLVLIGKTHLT
UniProt P21860, residues 20-643: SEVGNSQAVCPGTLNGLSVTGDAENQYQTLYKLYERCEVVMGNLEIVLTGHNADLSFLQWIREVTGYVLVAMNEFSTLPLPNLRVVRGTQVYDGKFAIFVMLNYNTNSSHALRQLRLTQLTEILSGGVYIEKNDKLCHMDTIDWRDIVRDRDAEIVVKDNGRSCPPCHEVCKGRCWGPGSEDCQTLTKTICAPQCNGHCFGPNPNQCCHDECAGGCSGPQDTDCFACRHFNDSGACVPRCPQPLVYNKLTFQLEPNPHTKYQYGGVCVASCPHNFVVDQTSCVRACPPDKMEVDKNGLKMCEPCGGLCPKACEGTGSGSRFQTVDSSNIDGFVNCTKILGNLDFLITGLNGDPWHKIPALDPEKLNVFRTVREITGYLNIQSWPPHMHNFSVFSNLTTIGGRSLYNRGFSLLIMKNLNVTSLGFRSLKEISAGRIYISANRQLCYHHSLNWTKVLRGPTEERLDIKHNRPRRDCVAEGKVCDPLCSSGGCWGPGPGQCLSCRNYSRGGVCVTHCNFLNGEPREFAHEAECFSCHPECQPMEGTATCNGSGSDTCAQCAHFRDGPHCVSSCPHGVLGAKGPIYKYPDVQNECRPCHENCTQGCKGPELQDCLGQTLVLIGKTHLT

Where a chain is given by its changes, count along the chain named. These are yes or no findings as the source states them, for the method shown. Some binding calls cover weakened binding; strength is not graded here.

Assay [1] concerns the target cynomolgus HER3 antigen (cynomolgus monkey) (UniProt G7PIG5). Nature of the assay: ELISA on coated antigen (cross-reactivity) and SPR, summary. A general note: ELISA stands for enzyme-linked immunosorbent assay.
For assay [2] the target is unchanged. The assay is described as follows: ELISA, coated cy HER3, 40 nM antibody, OD450.
Assay [3] shares this target. Nature of the assay: ELISA, coated antigen, antibody in solution.
Assay [4] deals with T1, human HER3 antigen (Sino Biologicals) (human, UniProt P21860 20-643).
T1 construct: Bought soluble antigen; also called human antigen
Nature of the assay: ELISA, coated hu HER3, 40 nM antibody, OD450.

In assay [5] the target is cynomolgus EGFR antigen (cynomolgus monkey). Nature of the assay: ELISA, coated cy EGFR, 40 nM antibody, OD450.

B1: humanized anti-HER3 antibody 11006 (antibody, V domains shown)
VH: QVQLQESGPGLVKPSQTLSLTCTVSGYSITSAYYWNWIRQHPGKGVEWMGYIGYSGRNTYNPSLKNRVTISRDTSKNQFSLKLSSVTAADTAVYYCSREGDYGYSDYWGQGTLVTVSS
VL: DIQMTQSPSSLSASVGDRVTVTCRASQDTNNYLNWYQQKPGKAVKLLIYYTSRLQSGVPSRFSGSGSGTDFTLTISSLQPEDFATYFCQQSETLPWTFGQGTKVEIK
For B1, the binding result in assay [1], in assay [2] and in assay [3] was “binds” each time.

B2: humanized anti-HER3 antibody 11052 (antibody, V domains shown)
VH: B1 VH with H41F
VL: B1 VL with T29I, F71Y, V104L
Regarding B2, the binding result in assay [1], in assay [2] and in assay [3] was “binds” in each case.

B3: chimeric anti-HER3 antibody 5038 (antibody, V domains shown)
VH: EVKLVESGPGLVKPSQSLSLTCSVTGYSITSGFYWTWIRQFPGNKLEWMGFISYDGSNNYNPSLKNRISITRDTSKNQFFLKLNSVTTEDTATYYCARGGGYYGNLFDYWGQGTTLTVS
VL: DIVMTQTTSSLSASLGDRVTISCRPSQDISNYVNWFQQKPGGTVKLLIFHTSRLHSGVPSRFSGSGSGTDYSLTISTLEQEDIAIYFCQQGITLPWTFGGGTKLEIKR
notes: light chain entry is full length
Consider B3, for which the binding entry in assay [4] and in assay [2] was “binds” throughout.

B4: chimeric anti-EGFR antibody 1565 (antibody, V domains shown)
VH: EVQLQQSGTELVKPGASVILSCKASGYTFTSYWMQWVKQRPGQGLEWIGNINPSNGGTSFNEEFKSRATLTVDKSSSTAYMQLSSLTSEDSAVYYCARDGGLYDGYYFDFWGQGTTLTVS
VL: NIVMTQSHKFMSTLIGARVSITCKASQDVDTAVAWYQQKPGQSPKLLIYWASTRHTGVPDRFTGSGSGTDFSLTVSNVQSEDLTDYFCQQYSSYPLTFGAGTKLELKR
notes: as for B3
Consider B4, for which the binding entry in assay [5] is reported as “binds”.

B5: chimeric anti-HER3 antibody 5082 (antibody, V domains shown)
VH: EVQLKESGPGLVKPSQSLSLTCSVTGYSITSAYYWNWIRQFPGNKVEWMGYIGYDGRNTYNPSLKNRISITRDTSKNQFFLKLNSLTTEDTATYYCSREGDYGYSDYWGQGTTLTVS
VL: DIVMTQATSSLSASLGDRVTVSCRASQDINNYLNWYQQKPDGTVKLLIYYTSRLQSGVPSRFSGSGSGIDYSLTISNLEQEDFVTYFCQQSETLPWTFGGGTKLELKR
notes: as for B3
Turning to B5, the binding entry in assay [4] and in assay [2] was “binds” each time.

B6: humanized anti-HER3 antibody 10810 (antibody, V domains shown)
VH: QVQLQESGPGLVKPSQTLSLTCTVSGYSITSGFYWTWIRQHPGNGLEWIGFISYSGSNNYNPSLKNRVTISVDTSKNQFSLKLSSVTAADTATYYCARGGGYYGNLFDYWGQGTLVTVSS
VL: DIQMTQSPSSLSASVGDRVTITCRPSQDISNYVNWFQQKPGKAPKLLIFHTSRLHSGVPSRFSGSGSGTDFTLTISSLQPEDIATYYCQQGITLPWTFGQGTKVEIK
Turning to B6, the binding entry in assay [1], in assay [2] and in assay [3] was “binds” in each case.
